These are yes or no findings as the source states them, for the method shown. Some results given as binding are weak or reduced against the parent protein; the word gives no strength. Where a sequence is shown, tags or fusion partners need not be part of it.
Molecular target: T1, E. coli DsbA-FLAG (pFH441) (E. coli) (UniProt P0AEG4)
T1 sequence (looked up): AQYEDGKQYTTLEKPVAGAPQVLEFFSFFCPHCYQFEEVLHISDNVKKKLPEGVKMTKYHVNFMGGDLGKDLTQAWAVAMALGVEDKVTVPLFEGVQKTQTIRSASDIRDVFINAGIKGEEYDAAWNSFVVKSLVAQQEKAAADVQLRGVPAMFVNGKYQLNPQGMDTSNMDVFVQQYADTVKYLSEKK
Test: FIG. 4 legend; motility plates and immunoblots in E. coli FSH231

- binding: binds
B1: T7-tagged rat VKORc1ΔAAR, G60D lacking all nonessential cysteines (pFH436: rat VKORc1 C16A ΔA31AR G60D C85A C96A-linker-T7 tag) (enzyme)
chain: MGTTWRSPGRLRLALALAGLALSLYALHVKARNEDYRALCDVGTAISCSRVFSSRWDRGFGLVEHVLGADSILNQSNSIFGAMFYTIQLLLGALRGRWASILLILSSLVSVAGSLYLAWILFFVLYDFCIVCITTYAINAGLMLLSFQKVPEHKVKKPGTGGGSGGGSGS
notes: Expressed in E. coli FSH231 (ΔdsbB, yidCT362I, hslVC160Y); not shown: C-terminal T7 tag
